Data as given in PubChem BioAssay AID1224830 (NIAID, 2016)

- Assay: 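Genes whose knock-down alters the TNF-alpha reporter response to LPS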 (primary screen)
- Cells: human THP-1 monocytic leukaemia cells, TNF dual-luciferase reporter clone, PMA-differentiated to macrophage-like cells
- Reagent: siRNA pool against human genes, 50 nM
- Duration: LPS for 4 h, given about 3 days after siRNA transfection
- Challenge: bacterial LPS (TLR4 ligand), 10 ng/ml
- Measurement: 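Ratio of firefly to renilla light, scaled to the plate median and expressed as a robust z-score per replicate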
- Reading the numbers: TNF reporter robust z-score: higher = stronger TNF reporter response to LPS
- Hit rule: 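a well is active when its z-score exceeds 2.8 or falls below -1.5; control wells carry no call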
In all, the deposit lists about 18,000 reagents; shown is a random part of them. About 2,900 of them (16%) count as active. 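Calls are made per well; low scores hint the gene aids the LPS response, high scores that it dampens it.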 A number with no mark means an inactive call. Repeated entries: four replicate wells of each siRNA pool.

Target gene | TNF reporter robust z-score
LRGUK | -0.45
LRGUK | -0.66
LRGUK | -0.58
LRGUK | 0.01
SPIN3 | 0.83
SPIN3 | 0.21
SPIN3 | 2.59
SPIN3 | -0.2
PRR36 | -0.55
PRR36 | -0.06
PRR36 | 0.49
PRR36 | 0.15
FCN3 | 0.95
FCN3 | 2.96 (active)
FCN3 | 0.11
FCN3 | -0.15
SLC38A12 | 0.84
SLC38A12 | -0.23
SLC38A12 | -0.18
SLC38A12 | -0.09

3 entries from above, ordered by “TNF reporter robust z-score”, highest first:
Target gene | TNF reporter robust z-score
PRR36 | 0.49
PRR36 | -0.06
PRR36 | -0.55

Additional records follow:
Target gene | TNF reporter robust z-score
AKAP8L | 0.68
AKAP8L | 2.38
AKAP8L | 0.53
AKAP8L | 2.93 (active)
XRCC1 | 1.31
XRCC1 | 0.84
XRCC1 | -0.48
XRCC1 | -0.42
DAOA | -0.88
DAOA | -0.41
DAOA | -1.22
DAOA | -0.75
MTMR12 | -0.34
MTMR12 | -0.7
MTMR12 | 0.5
MTMR12 | -0.26
ORC1 | -0.71
ORC1 | 0.19
ORC1 | 1.01
ORC1 | -0.63
RUFY1 | 0.58
RUFY1 | -0.71
RUFY1 | 2.43
RUFY1 | 0.42
VAMP2 | 0.13
VAMP2 | 0.59
VAMP2 | 0.71
VAMP2 | 0.51
